## Primary screen of a compound library

Measurements from “University of Dundee, Small-Polar-MMV Screening Library” (2021), ChEMBL document CHEMBL3988442.

Mtb cholesterol medium: 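Whole-cell growth test on Mycobacterium tuberculosis, read after 4 days in a medium based on cholesterol and the lipid DPPC; the read-out is not stated. Tested at 50 µM. The record gives no direction; compounds that gave an IC50 in retests scored well above the rest, so higher reads as more growth inhibition. Size under these conditions: about 69,000 compounds, about 370 of them at 50% or above in at least one test.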
Mtb glucose medium: 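Whole-cell growth test on Mycobacterium tuberculosis, read after 3 days in glucose-containing 7H9 medium; the read-out is not stated. Concentration: 50 µM. The record gives no direction; compounds that gave an IC50 in retests scored well above the rest, so higher reads as more growth inhibition. About 69,000 compounds were tested under these conditions; 1.1% (about 760) showed 50% or more at least once.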

The filed quantity is “Percent Effect” (%). The controls that fix the scale are not given in the record; negative values are as filed. The compounds are a random part of those screened. Two or more numbers in one place are separate tests of the same structure; such repeats can differ widely.

compound | Mtb cholesterol medium | Mtb glucose medium
CCN1Cc2c(C(=O)NC(C)C(C)C)ncn2-c2ccccc2S1(=O)=O (stereo not given) | -12.58 | -3.177
O=C(Nc1cnn(CCN2CCOCC2)c1)c1cc(F)ccc1F | 1.13 | -16.93
O=C(O)C(F)(F)F.[H][C@@]12CN(CC3CC3)CCO[C@]1([H])CN(C(=O)c1cocn1)C2 | -2.126 | -4.712 and -8.447
CCCn1cc(C(=O)NCCCC(N)=O)c2ccccc21 | -10.34 | -31.84
Cc1cc(C)n(CC2CCCCN2CC(=O)Nc2ccncc2)n1 (stereo not given) | -32.71 | -13.79
[H][C@]12C[C@H](NC(=O)c3cc[nH]n3)[C@@]1([H])CN(S(=O)(=O)c1ccc(C)cc1)C2 | -22.17 | -11.37
Cc1cncc(C(=O)N2CCC3(CCCN(c4nncs4)C3)C2)c1.O=C(O)C(F)(F)F (stereo not given) | -20.09 | -22.18
CCC[C@H]1CN(CCS(C)(=O)=O)C[C@@H]1NC(=O)Cn1cc(C)cn1 | -42.61 | -19.4
CC(=O)c1ccc(CNC(=O)c2cc(C#N)cn2C)nc1C | 21.23 | 5.72
CCOc1cc(C(=O)N2CCCC(n3nc(C)nc3C)C2)ccn1 (stereo not given) | -5.949 | -23.16
CCn1cnnc1CNC(=O)N1CCOC(c2ccc(Cl)cc2)C1 (stereo not given) | 20.13 | 1.948 and 3.307
O=C(NCc1ccc(Cl)cc1Cl)NCC1(O)CCSC1 (stereo not given) | -2.752 | -3.023
O=C(Cc1cn2ccsc2n1)N1CCCC(n2cccn2)C1 (stereo not given) | -3.978 | -12.67
[H][C@]12CC[C@@]3(N=C(C)N(C)C3=O)[C@@]1([H])CN(C(=O)Nc1ccc(CC)cc1)C2 | -2.442 | -0.549
Cc1ccc(N2CCC3(CCC(=O)N3Cc3ccncc3)CC2)nn1.O=C(O)C(F)(F)F | -11.61 | -3.975
O=C(O)C(F)(F)F.[H][C@]12OCCC[C@]1([H])N(C(=O)c1ccc(C)o1)C[C@H]2OCc1cccnc1 | -4.489 | 9.697
CCCNC(=O)c1cncc(CC2CCCN(C)C2)c1 (stereo not given) | -4.503 | -4.889
CC(C)[C@H](NC(=O)NC1CCS(=O)(=O)C1)C(=O)NCc1ccccc1 (stereo not given in full) | -10.78 | -9.529
CCOc1cc2c(cc1CN1CCC3(CCCNC3=O)C1)CCC2 (stereo not given) | 25.11 | 19.32 and 6.539
COCCN1CCN(C(=O)NC2CC2)Cc2ccc(C)nc21.O=C(O)C(F)(F)F | -8.583 | 10.31 and 1.41
Cl.O=C(C1CC1)N1CCC2(CC1)CNc1ccc(F)cc12 | 4.891 | 16.24 and 30.22
COc1ccc(-n2cccn2)c(CN2CCC3(CCCN(C)C3=O)C2)c1 (stereo not given) | 23.61 | -0.5245 and 10.91
COc1ccc(OC)c(CCNC(=O)CCC2CCCO2)c1 (stereo not given) | 1.544 and -4.889 | 8.162
CC(CNC(=O)c1ccccc1Oc1cccnc1)N(C)C (stereo not given) | 19.38 | -12.66
Cc1cc(C(=O)N2CCCC(N3CCNC3=O)C2)nn1C(C)(C)C (stereo not given) | 1.034 and -5.141 | -36.87
Cc1nnc(N2CCC(CN(C)C(C)C)CC2)c(C#N)c1C | 16.22 | -1.133
O=c1[nH]cc(N2CCCCCC2)c(=O)[nH]1 | -52.98 | -4.339 and -5.079
Cc1nc(C2CCCNC2)cc(N(C)CCc2cn[nH]c2)n1 (stereo not given) | -16.41 | 8.469
COc1ccc(-c2cc(C3CCCNC3)ccn2)cc1.Cl (stereo not given) | 40.85 | 28.11
Cc1ccccc1-c1cncc(C2CCN(C(=O)CN(C)C)CC2)n1 | -33.2 | -47.31
[H][C@@]12CO[C@@H](CNC(=O)c3ccco3)[C@]1([H])CCN(c1ccc(C)nn1)C2 | -19.34 | 3.672
CNC(=O)c1cnc(/C=C/c2ccc(O)c(OC)c2)s1 | -18.49 | -11.83 and -46.01
CC(C)CS(=O)(=O)N1CCC2(CN(c3cccc(F)c3)C(=O)CN2C)C1.O=C(O)C(F)(F)F (stereo not given) | -4.121 | -19.36
CCc1[nH]c2ccc(CNC(=O)c3cnc(N)nc3C)cc2c1C | -5.35 | 13.41
CCn1cc(NC(=O)NCC(c2ccsc2)N(C)C)cn1 (stereo not given) | -7.571 | -33.46
[H][C@@]12CS(=O)(=O)C[C@]1([H])N(C(=O)c1cc(-c3ccc(C)o3)n[nH]1)CCN2CC | -9.166 | -9.836
COc1cc(N2CCC(c3nccn3Cc3cccnc3)CC2)ncn1 | 14.66 | 12.76
COc1cccc(-n2c(C)cc(C(=O)NC(C)(C)C(N)=O)c2C)c1 | 5.061 | 16.5
CC(C)CCN(C)C(=O)c1nc(S(C)(=O)=O)n2ccccc12 | 10.2 | -3.226
CN(C)C(=O)C1CCCN1CCCNC(=O)c1ccccc1F (stereo not given) | -2.472 | -5.302 and -21.48
Nc1c(Cl)cnn1C1CCN(Cc2ccccc2)C1 (stereo not given) | 0.4751 | 17.23
O=C(NCCN1CCOCC1)c1cc2c(s1)CCN2Cc1cccnc1 | -19.28 | -9.841 and -40.62
COc1nc(C)c(C(=O)N2CCC(C(O)Cc3ccccc3)CC2)s1 (stereo not given) | -8.612 | -6.528 and -10.48
COCC1CN(c2ccc3c(Cl)ccnc3c2F)CCO1 (stereo not given) | 15.76 | 30.97
O=C(CSc1nc2nncc-2c(O)n1-c1ccccc1)N1CCOCC1 | -0.1281 | 3.208 and 14.09
COc1nn(C)cc1C(=O)N1CCC(c2nnc(-c3ccsc3)o2)CC1 | -18.69 | -5.663
C[C@]1(O)CCN(Cc2nccs2)C[C@@H]1Oc1cccc(F)c1 | -9.757 | 9.032
Cl.O=C1NC2(CCNCC2)CC1c1ccccc1 (stereo not given) | -52.14 and -5.78 | -64.24
CCc1cc(N(C)Cc2[nH]nc3c2CCC3)nc(N2CCOCC2)n1 | 6.264 | -2.025
COc1ccc(OC)c(NC(=O)c2cc3c([nH]c2=O)CCCC3=O)c1 | 11.62 | 4.301 and 0.9809
CCN(Cc1ccc2c(c1)OCO2)S(=O)(=O)N(C)C(C)C | -22.46 | -12.39
COCc1cncc2c1CCN(C(=O)c1cccc(C#N)c1)C2.O=C(O)C(F)(F)F | 13.11 | 16.83

5 of the entries, repeated:

For CCc1cc(N(C)Cc2[nH]nc3c2CCC3)nc(N2CCOCC2)n1 the result was Mtb cholesterol medium: 6.264%; Mtb glucose medium: -2.025%.
For CC(=O)c1ccc(CNC(=O)c2cc(C#N)cn2C)nc1C the result was Mtb cholesterol medium: 21.23%; Mtb glucose medium: 5.72%.
For CCn1cc(NC(=O)NCC(c2ccsc2)N(C)C)cn1 (stereo not given) the result was Mtb cholesterol medium: -7.571%; Mtb glucose medium: -33.46%.
For CCOc1cc(C(=O)N2CCCC(n3nc(C)nc3C)C2)ccn1 (stereo not given) the result was Mtb cholesterol medium: -5.949%; Mtb glucose medium: -23.16%.
For COc1cccc(-n2c(C)cc(C(=O)NC(C)(C)C(N)=O)c2C)c1 the result was Mtb cholesterol medium: 5.061%; Mtb glucose medium: 16.5%.